This note sets out measurements from publication PMC8766458, “Deciphering the mechanism of processive ssDNA digestion by the Dna2-RPA ensemble” (Nature Communications, 2022).

For data set [1], the system named is dna2-D657A (nuclease-dead) + RPA. As to the kind of experiment: EMSA. To be noted: ternary complex, range given jointly for 3'-overhang and gap; EMSA: 25 mM Tris-HCl pH 7.5, 150 mM KCl, 1 mM DTT, 100 µg/mL BSA, 5 nM DNA, 30 °C 10 min, 4% native PAGE in 0.2x TBE; recombinant protein; protein details: His6, FLAG,none; label: 32P 5'-end. Background: In EMSA bound probe runs differently from free probe, usually more slowly.

Data set [2] relates to dna2-P504S (dna2-1) + Rfa1-NAB. The experiment in a line: EMSA. To be noted: no ternary complex; EMSA: 25 mM Tris-HCl pH 7.5, 150 mM KCl, 1 mM DTT, 100 µg/mL BSA, 5 nM DNA, 30 °C 10 min, 4% native PAGE in 0.2x TBE; recombinant protein; protein details: FLAG, His,N-terminal His6 (TEV removable); label: 32P 5'-end; single-stranded DNA.

For part of these data: Negatives hold for the conditions tested. For part of these data: The comparison behind a weaker result is the experiment's own reference, which may not be listed here.

Consider “TTCATGGCTTAGAGCTTAATTTTTTTTTTTTTTTTTTTTTTTTTTTTTTT / ATTAAGCTCTAAGCCATGAA [3'-overhanging dT(30) DNA (S12+S13)]”, for which the binding result in data set [1] is listed as “binds more weakly”. Regarding “TTCATGGCTTAGAGCTTAATTTTTTTTTTTTTTTTTTTTTTTTTTTTTTTTTGATAAGAGGTCATTTGAA / TTCAAATGACCTCTTATCAA / ATTAAGCTCTAAGCCATGAA [dT(30)-gap DNA (S14+S11+S13)]”, the binding result in data set [1] is reported as “binds more weakly”. As to TTTTTTTTTTTTTTTTTTTT [dT(20)], the binding result in data set [2] was “no binding”.
